Data as given in PubChem BioAssay AID1671195 (Yale University, 2021).

Assay: 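Knockdowns that increase or decrease uptake of fluorescent LDL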 (primary screen)
System: human Huh7 hepatoma cells
Knock-down reagent: siRNA pool against human genes, 18 nM
Time to read-out: about 2 to 2.5 days of knockdown, then 8 h LDL uptake
Treatment: DiI-labelled LDL at 30 µg/ml for 8 h, in lipoprotein-deficient serum medium
Detection: 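Fluorescent LDL signal imaged in cells, scaled to the plate median, robust z-score for each replicate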
Scale: robust z-score: higher = more LDL uptake after knockdown
Hit rule: 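a gene counts as active if at least two replicate z-scores exceed ±2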
This is a random part of about 22,000 reagents tested. About 1,510 of them (6.9%) were called active. 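Active includes knockdowns raising or lowering LDL uptake; positive z-scores mean more uptake, negative mean less.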

no.	gene	robust z-score, replicate 1	robust z-score, replicate 2	robust z-score, replicate 3	Call
1	LAMP3 (lysosome associated membrane protein 3)	-1.46	-0.456	-1.56	inactive
2	CARD18 (caspase recruitment domain family member 18)	-0.967	-1.49	-1.5	inactive
3	PSD3 (pleckstrin and Sec7 domain containing 3)	-0.726	1.36	-1.91	inactive
4	RPS27AP5 (ribosomal protein S27a pseudogene 5)	1.09	0.387	1.06	inactive
5	FBXL14 (F-box and leucine rich repeat protein 14)	-0.764	-1.39	-0.444	inactive
6	PPIL3 (peptidylprolyl isomerase like 3)	-2.2	-2.43	-2.1	active
7	NKG7 (natural killer cell granule protein 7)	0.714	1.16	0.834	inactive
8	PRAM1 (PML-RARA regulated adaptor molecule 1)	0.259	0.144	0.102	inactive
9	LOC389660 (retired record)	-1.64	-1.68	-1.39	inactive
10	TEX38 (testis expressed 38)	0.933	0.823	0.773	inactive
11	ZNF597 (zinc finger protein 597)	-1.89	-2.31	-0.374	inactive
12	SLC45A4	-0.0915	-0.663	-0.416	inactive
13	PTPN12 (protein tyrosine phosphatase non-receptor type 12)	-0.398	-0.583	-0.784	inactive
14	ZNF529 (zinc finger protein 529)	1.82	1.34	0.0268	inactive
15	RASGRP4 (RAS guanyl releasing protein 4)	-0.816	0.665	0.195	inactive
16	MYLK2 (myosin light chain kinase 2)	-0.123	1.04	-0.555	inactive
17	STATH (statherin)	-1.2	-0.491	0.568	inactive
18	NTAN1 (N-terminal asparagine amidase)	2.86	2.48	2.88	active
19	LINC02239 (long independently transcribed non-coding RNA 2239)	-1.12	-0.969	-0.842	inactive
20	RWDD2A (RWD domain containing 2A)	1.54	2.67	2.65	active
21	PRRG4 (proline rich and Gla domain 4)	-1.59	-1.42	-1.22	inactive
22	AATF (apoptosis antagonizing transcription factor)	0.141	0.0166	-0.103	inactive
23	RBM25 (RNA binding motif protein 25)	-0.777	-1.3	-1.76	inactive
24	ATG13 (autophagy related 13)	-0.167	-0.455	1.42	inactive
25	NR5A2 (nuclear receptor subfamily 5 group A member 2)	-1.25	-1.36	-1.37	inactive
26	HPCA (hippocalcin)	-0.181	0.0961	0.306	inactive
27	NUDT15 (nudix hydrolase 15)	-0.0484	1.1	0.425	inactive
28	FOXP3 (forkhead box P3)	-0.127	0.107	-0.0194	inactive

Limited to “robust z-score, replicate 3” (3 entries from above):
LAMP3 (lysosome associated membrane protein 3)	-1.56
CARD18 (caspase recruitment domain family member 18)	-1.5
PSD3 (pleckstrin and Sec7 domain containing 3)	-1.91
